Patent US20250109127A1, “METHODS OF USE OF PHENOXYPROPYLAMINE COMPOUNDS TO TREAT DEPRESSION” (Minerva Neurosciences, Inc., priority 2013, published 2025)
Where “and” joins values, the source holds several entries; their conditions need not be identical. Identical values can stand only once. Counter-ions that a name gives are not always drawn. Further values from the same series stand in other lists.

Key:
[1] = test system: 5-HIAA release in the rat prefrontal cortex; experiment: Microdialysis: 5-HIAA release in prefrontal cortex after I.P. administration; type: in vivo; settings: hydrochloride; for 5-HIAA (% of respective basal), individual animal: 0.1 mg/kg I.P., c2-c9 = R#13,14,20,19,25,26,31,32; for 5-HIAA release, individual animals: 0.3 mg/kg I.P., one column per animal R#11,12,18,23,29,30,17,24; for 5-HIAA release (% of basal levels) measured in dialysates: SON-117 3 mg/kg IP, individual animals, 3 mg/kg
Method: (§1) The aim of the study was to evaluate, using microdialysis, the effects of an intraperitoneal (I.P.) administration in rats of three different doses of SON-117 on dopamine and its metabolites, serotonin and its metabolite (5-HIAA), and norepinephrine levels in prefrontal cortex.
(§2) Thirty-two adult male Wistar rats were used for the whole study (4 groups of eight animals planned for the study, Table 1).
(§3) Surgery was performed on rats weighing about 300 g at the beginning of the experiments. Rats were anaesthetized with Ketamine (50 mg/kg) & Xylazine (15 mg/kg) by intramuscular administration. The animals were placed in a stereotaxic apparatus in the flat-skull position at a constant setting of −3.3 mm between ear bars and the incisor bar. The animals were treated with a local anesthesic (xylocaine 1%, Astra Zeneca) and an analgesic (Temgesic, from Schering Plough, 0.05 mg/kg, s.c.). A rostrocaudal midline incision was made with a lancet to expose the dorsal skull surface. The “stereotaxic zero” was defined by the Bregma in accordance with Paxinos and Watson's atlas (1986). A hole was drilled in the skull with a drill and the meninges were pierced with a sterile needle to implant a CMA12 guide cannula which later received the dialysis probe.
(§4) Coordinates used for implanting guide cannula in prefrontal cortex from Bregma were anteroposterior 3.7 mm, mediolateral 0.8 mm, and dorsoventral −2 mm (top of the probe was at −5 mm). The guide cannula was fixed to the skull with two stainless steel screws (1.88 mm outside diameter) anchored. An application of dental cement was added. A plastic collar allowed each animal to be tethered to a Swivel assembly of the CMA 120 awake animal system. Following surgery, rats were kept in individual cages and allowed to recover for a minimum of 3-5 days before the experimentation. The rats were handled and put in plastic bowl for 10 min at least every day to habituate the animals to their new environment for the dialysis. An I.P. administration with saline was also performed every day.
(§5) Dialysis probes (CMA12/3 mm, membrane, 20 kD cut-off, Carnegie Medicine, Stockholm, Sweden), were carefully washed before inserting into the guide cannula. The wash was performed with the artificial cerebrospinal fluid (aCSF) medium (NaCl 147 mM, KCl 2.7 mM, CaCl2 1.2 mM, MgCl2 0.85 mM) at room temperature. The dialysis system was then equilibrated at 20° C. at a perfusion rate of 1 μl/min with a Carnegie pump (CMA100). All catheters (FEP tubing, internal volume of 1.2 μl/10 cm, and tubing adaptors) used for microdialysis were treated in the same conditions.
(§6) The probes duly prepared were inserted into the guide cannula and the CMA120 Swivel assembly secured to the animal using a plastic collar. Flow through the dialysis probe with aCSF was maintained at a rate of 1 μl/min during the whole experimentation. The first four fractions (corresponding to 2 hours) were discarded to avoid the effects of parenchymal disturbance and to ensure that an approximate steady-state level was reached. Fractions were then collected over a period of 8.5 h during which time the animals remained quiet. The dialysates were automatically collected with an autosampler (microfraction collector CMA 140, Carnegie Medicin) and stored at −80° C. until analysis. […] Perfusion was then maintained for 7 hours with aCSF. The dialysates (30 μl) were collected into 300 μl vials, transferred into dry ice and then kept frozen (−80° C.) until analysis. Frozen samples were shipped to a partner for analysis. At the end of the microdialysis study, a PBS with colored ink was perfused through the probe in order to visualize the dialyzed area.
(§7) Catecholamine assay: Concentrations of dopamine, DOPAC, HVA, 5-HIAA, 5-HT, and norepinephrin were determined for each sample by HPLC coupled with electrochemical detection.

[2] = test system: HVA release in the rat prefrontal cortex; experiment: Microdialysis: HVA release in prefrontal cortex after I.P. administration; type: in vivo; settings: hydrochloride; for HVA (% of respective basal), individual animal: 0.1 mg/kg I.P., c2-c9 = R#13,14,20,19,25,26,31,32; for HVA release, individual animals: 0.3 mg/kg I.P., one column per animal R#11,12,18,23,29,30,17,24; for HVA release (% of basal levels) measured in dialysates: SON-117 3 mg/kg IP, individual animals, 3 mg/kg
Method: as §1, §2, §3, §4, §5, §6, §7

[3] = T-30 min-T0 (before administration)
[4] = T-1 h 30-T-1 h (before administration)
[5] = T-1 h-T-30 min (before administration)
[6] = T-30 min-T0 (pre-administration)
[7] = T-1 h 30-T-1 h (pre-administration)

In the case of `Cc1nnc(-c2cc3c(OC[C@@H](O)CN4CCC(c5ccc(Cl)c(Cl)c5)CC4)cccc3o2)o1` [SON-117, (S)-1-(4-(3,4-dichlorophenyl)piperidino)-3-(2-(5-methyl-1,3,4-oxadiazol-2-yl)benzo(b)furan-4-yloxy)-2-propanol hydrochloride], the “5-HIAA (% of respective basal), individual animal” value (“5-HIAA (% of respective basal)” for short) ([1]; T0-T30 min) is reported as 89.00 % of respective basal and 106.36 % of respective basal and 92.77 % of respective basal and 96.09 % of respective basal and 85.06 % of respective basal and 99.4 % of respective basal, the “5-HIAA (% of respective basal)” value ([1]; T6 h 30-T7 h) is reported as 151.69 % of respective basal and 75.07 % of respective basal and 104.47 % of respective basal and 71.87 % of respective basal and the “5-HIAA (% of respective basal)” value [1, 3] is reported as 107.30 % of respective basal and 105.878 % of respective basal and 99.90 % of respective basal and 107.70 % of respective basal and 97.49 % of respective basal and 108.28 % of respective basal and 90.07 % of respective basal and 95.14 % of respective basal. For the same compound, the “5-HIAA (% of respective basal)” value [1, 4] was 103.54 % of respective basal and 96.38 % of respective basal and 103.27 % of respective basal and 96.06 % of respective basal and 90.91 % of respective basal and 81.32 % of respective basal and 112.18 % of respective basal and 104.59 % of respective basal, the “5-HIAA (% of respective basal)” value [1, 5] was 89.16 % of respective basal and 97.758 % of respective basal and 96.93 % of respective basal and 96.24 % of respective basal and 111.59 % of respective basal and 110.40 % of respective basal and 97.74 % of respective basal and 100.27 % of respective basal and the “5-HIAA release, individual animals” value ([1]; T0-T30 min) was 102.94 % of respective basal and 90.89 % of respective basal and 108.76 % of respective basal and 101.63 % of respective basal and 86.48 % of respective basal and 107.66 % of respective basal and 116.13 % of respective basal and 113.00 % of respective basal. For the same compound, the “5-HIAA release, individual animals” value ([1]; T6 h 30-T7 h) was 94.07 % of respective basal and 93.86 % of respective basal, the “5-HIAA release, individual animals” value [1, 3] was 100.18 % of respective basal and 101.96 % of respective basal and 105.97 % of respective basal and 101.81 % of respective basal and 100.77 % of respective basal and 93.72 % of respective basal and 98.06 % of respective basal and 108.22 % of respective basal and the “5-HIAA release, individual animals” value [1, 4] was 94.29 % of respective basal and 100.12 % of respective basal and 90.67 % of respective basal and 98.49 % of respective basal and 94.27 % of respective basal and 96.96 % of respective basal and 100.87 % of respective basal and 93.90 % of respective basal. The “5-HIAA release, individual animals” value [1, 5] was 105.52 % of respective basal and 97.92 % of respective basal and 103.36 % of respective basal and 99.69 % of respective basal and 104.96 % of respective basal and 109.32 % of respective basal and 101.10 % of respective basal and 97.88 % of respective basal, the “5-HIAA release (% of basal levels) measured in dialysates” value (“5-HIAA release (% of basal levels)” for short) ([1]; T0-T30 min) was 101.21 % of basal levels and 93.16 % of basal levels and 90.36 % of basal levels and 111.88 % of basal levels and 92.81 % of basal levels and 106.00 % of basal levels and 100.80 % of basal levels and 103.83 % of basal levels and the “5-HIAA release (% of basal levels)” value ([1]; T6 h 30-T7 h) was 68.84 % of basal levels and 70.77 % of basal levels and 90.47 % of basal levels. For the same compound, the “5-HIAA release (% of basal levels)” value [1, 6] was 105.11 % of basal levels and 94.02 % of basal levels and 109.01 % of basal levels and 102.99 % of basal levels and 104.67 % of basal levels and 104.95 % of basal levels and 100.33 % of basal levels and 102.08 % of basal levels, the “5-HIAA release (% of basal levels)” value [1, 7] was 93.32 % of basal levels and 102.17 % of basal levels and 94.03 % of basal levels and 87.44 % of basal levels and 89.69 % of basal levels and 98.75 % of basal levels and 100.94 % of basal levels and 91.52 % of basal levels and the “5-HIAA release (% of basal levels)” value ([1]; T-1 h-T-30 min (pre-administration)) was 101.57 % of basal levels and 103.81 % of basal levels and 96.95 % of basal levels and 109.57 % of basal levels and 105.64 % of basal levels and 96.30 % of basal levels and 98.73 % of basal levels and 106.40 % of basal levels. For the same compound, the “HVA (% of respective basal), individual animal” value (“HVA (% of respective basal)” for short) ([2]; T0-T30 min) was 121.40 % of respective basal and 123.36 % of respective basal and 91.60 % of respective basal and 94.33 % of respective basal and 84.55 % of respective basal and 93.95 % of respective basal, the “HVA (% of respective basal)” value ([2]; T6 h 30-T7 h) was 88.04 % of respective basal and 148.73 % of respective basal and 123.65 % of respective basal and 63.53 % of respective basal and the “HVA (% of respective basal)” value [2, 3] was 96.50 % of respective basal and 104.97 % of respective basal and 102.90 % of respective basal and 134.09 % of respective basal and 91.26 % of respective basal and 104.17 % of respective basal and 88.35 % of respective basal and 90.91 % of respective basal. For the same compound, the “HVA (% of respective basal)” value [2, 4] was 107.21 % of respective basal and 96.85 % of respective basal and 93.64 % of respective basal and 80.61 % of respective basal and 99.87 % of respective basal and 85.05 % of respective basal and 108.5 % of respective basal and 111.3 % of respective basal, the “HVA (% of respective basal)” value [2, 5] was 96.32 % of respective basal and 98.16 % of respective basal and 103.43 % of respective basal and 85.28 % of respective basal and 108.88 % of respective basal and 110.79 % of respective basal and 103.16 % of respective basal and 97.79 % of respective basal and the “HVA release, individual animals” value ([2]; T0-T30 min) was 90.89 % of respective basal and 66.19 % of respective basal and 85.70 % of respective basal and 97.19 % of respective basal and 87.89 % of respective basal and 113.36 % of respective basal and 220.95 % of respective basal and 94.31 % of respective basal. The “HVA release, individual animals” value ([2]; T6 h 30-T7 h) was 79.61 % of respective basal and 100.92 % of respective basal, the “HVA release, individual animals” value [2, 3] was 95.34 % of respective basal and 96.06 % of respective basal and 96.23 % of respective basal and 99.79 % of respective basal and 99.29 % of respective basal and 91.13 % of respective basal and 128.40 % of respective basal and 104.31 % of respective basal and the “HVA release, individual animals” value [2, 4] was 109.98 % of respective basal and 103.62 % of respective basal and 100.80 % of respective basal and 105.27 % of respective basal and 100.33 % of respective basal and 94.99 % of respective basal and 43.32 % of respective basal and 103.83 % of respective basal. For the same compound, the “HVA release, individual animals” value [2, 5] was 94.68 % of respective basal and 100.31 % of respective basal and 102.96 % of respective basal and 94.93 % of respective basal and 100.41 % of respective basal and 133.88 % of respective basal and 128.33 % of respective basal and 91.86 % of respective basal, the “HVA release (% of basal levels) measured in dialysates” value (from here on “HVA release (% of basal levels)”) ([2]; T0-T30 min) was 78.86 % of basal levels and 79.92 % of basal levels and 77.73 % of basal levels and 103.05 % of basal levels and 87.40 % of basal levels and 98.58 % of basal levels and 122.04 % of basal levels and 107.12 % of basal levels and the “HVA release (% of basal levels)” value ([2]; T6 h 30-T7 h) was 86.52 % of basal levels and 109.35 % of basal levels and 138.98 % of basal levels. The “HVA release (% of basal levels)” value [2, 6] was 97.56 % of basal levels and 81.45 % of basal levels and 96.59 % of basal levels and 96.35 % of basal levels and 102.37 % of basal levels and 101.14 % of basal levels and 97.08 % of basal levels and 108.72 % of basal levels and the “HVA release (% of basal levels)” value [2, 7] was 100.28 % of basal levels and 104.53 % of basal levels and 106.79 % of basal levels and 95.37 % of basal levels and 95.07 % of basal levels and 104.70 % of basal levels and 98.85 % of basal levels and 88.50 % of basal levels.
